Assay results as given in PMC8304497.
These are yes or no findings as the source states them, for the method shown. Binding seen in cells or lysates may run through a third protein. Here binding means that the protein was enriched with, or labelled near, the bait; the list need not be complete.

Chains of the proteins cited; added tags and fusions are not shown.
UniProt Q9DCH4: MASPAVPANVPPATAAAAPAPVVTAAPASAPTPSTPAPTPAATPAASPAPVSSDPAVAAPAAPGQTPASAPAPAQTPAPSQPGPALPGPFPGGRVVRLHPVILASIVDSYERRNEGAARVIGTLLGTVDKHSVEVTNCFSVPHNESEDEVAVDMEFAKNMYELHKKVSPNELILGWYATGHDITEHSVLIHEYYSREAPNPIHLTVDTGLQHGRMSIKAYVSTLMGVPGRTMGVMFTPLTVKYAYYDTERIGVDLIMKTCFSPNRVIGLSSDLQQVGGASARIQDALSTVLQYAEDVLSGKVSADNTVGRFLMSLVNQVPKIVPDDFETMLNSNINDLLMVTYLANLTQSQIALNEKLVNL
UniProt P99027: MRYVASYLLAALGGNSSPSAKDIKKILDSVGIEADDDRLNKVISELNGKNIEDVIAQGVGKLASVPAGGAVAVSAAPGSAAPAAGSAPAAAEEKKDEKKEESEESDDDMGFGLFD
UniProt P63168: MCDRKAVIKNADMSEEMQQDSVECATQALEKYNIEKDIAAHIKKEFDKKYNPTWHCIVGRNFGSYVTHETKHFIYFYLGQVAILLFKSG
UniProt P28652: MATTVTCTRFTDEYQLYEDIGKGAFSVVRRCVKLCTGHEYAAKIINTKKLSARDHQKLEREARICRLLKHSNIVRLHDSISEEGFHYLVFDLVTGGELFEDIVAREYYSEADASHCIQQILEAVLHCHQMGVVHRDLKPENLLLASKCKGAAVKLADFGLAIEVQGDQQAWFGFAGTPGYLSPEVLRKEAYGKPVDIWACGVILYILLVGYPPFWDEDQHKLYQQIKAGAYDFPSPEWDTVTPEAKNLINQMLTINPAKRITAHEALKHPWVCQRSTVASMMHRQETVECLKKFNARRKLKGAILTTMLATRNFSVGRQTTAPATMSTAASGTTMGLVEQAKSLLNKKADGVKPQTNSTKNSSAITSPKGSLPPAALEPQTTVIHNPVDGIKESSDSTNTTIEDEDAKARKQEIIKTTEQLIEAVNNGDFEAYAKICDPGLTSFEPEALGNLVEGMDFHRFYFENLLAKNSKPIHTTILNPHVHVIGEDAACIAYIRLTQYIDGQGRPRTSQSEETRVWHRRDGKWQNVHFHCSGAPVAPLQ
UniProt P62259: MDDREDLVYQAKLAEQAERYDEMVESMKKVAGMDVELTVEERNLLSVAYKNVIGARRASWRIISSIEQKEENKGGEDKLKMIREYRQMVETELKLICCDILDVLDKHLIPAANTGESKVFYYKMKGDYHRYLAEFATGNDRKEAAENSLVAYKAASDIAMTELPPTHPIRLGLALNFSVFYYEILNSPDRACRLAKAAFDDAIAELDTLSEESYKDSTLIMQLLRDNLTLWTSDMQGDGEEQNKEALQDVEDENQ
UniProt Q91WK2: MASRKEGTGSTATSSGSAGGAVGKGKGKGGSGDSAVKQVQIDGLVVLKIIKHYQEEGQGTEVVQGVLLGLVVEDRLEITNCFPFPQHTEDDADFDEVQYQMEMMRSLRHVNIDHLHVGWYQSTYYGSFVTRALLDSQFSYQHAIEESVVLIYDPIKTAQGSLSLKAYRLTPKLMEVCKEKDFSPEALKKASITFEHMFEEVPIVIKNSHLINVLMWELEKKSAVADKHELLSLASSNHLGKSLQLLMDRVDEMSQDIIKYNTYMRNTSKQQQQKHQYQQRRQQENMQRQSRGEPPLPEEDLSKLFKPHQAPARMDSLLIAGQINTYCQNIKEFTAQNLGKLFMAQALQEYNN
UniProt P14873: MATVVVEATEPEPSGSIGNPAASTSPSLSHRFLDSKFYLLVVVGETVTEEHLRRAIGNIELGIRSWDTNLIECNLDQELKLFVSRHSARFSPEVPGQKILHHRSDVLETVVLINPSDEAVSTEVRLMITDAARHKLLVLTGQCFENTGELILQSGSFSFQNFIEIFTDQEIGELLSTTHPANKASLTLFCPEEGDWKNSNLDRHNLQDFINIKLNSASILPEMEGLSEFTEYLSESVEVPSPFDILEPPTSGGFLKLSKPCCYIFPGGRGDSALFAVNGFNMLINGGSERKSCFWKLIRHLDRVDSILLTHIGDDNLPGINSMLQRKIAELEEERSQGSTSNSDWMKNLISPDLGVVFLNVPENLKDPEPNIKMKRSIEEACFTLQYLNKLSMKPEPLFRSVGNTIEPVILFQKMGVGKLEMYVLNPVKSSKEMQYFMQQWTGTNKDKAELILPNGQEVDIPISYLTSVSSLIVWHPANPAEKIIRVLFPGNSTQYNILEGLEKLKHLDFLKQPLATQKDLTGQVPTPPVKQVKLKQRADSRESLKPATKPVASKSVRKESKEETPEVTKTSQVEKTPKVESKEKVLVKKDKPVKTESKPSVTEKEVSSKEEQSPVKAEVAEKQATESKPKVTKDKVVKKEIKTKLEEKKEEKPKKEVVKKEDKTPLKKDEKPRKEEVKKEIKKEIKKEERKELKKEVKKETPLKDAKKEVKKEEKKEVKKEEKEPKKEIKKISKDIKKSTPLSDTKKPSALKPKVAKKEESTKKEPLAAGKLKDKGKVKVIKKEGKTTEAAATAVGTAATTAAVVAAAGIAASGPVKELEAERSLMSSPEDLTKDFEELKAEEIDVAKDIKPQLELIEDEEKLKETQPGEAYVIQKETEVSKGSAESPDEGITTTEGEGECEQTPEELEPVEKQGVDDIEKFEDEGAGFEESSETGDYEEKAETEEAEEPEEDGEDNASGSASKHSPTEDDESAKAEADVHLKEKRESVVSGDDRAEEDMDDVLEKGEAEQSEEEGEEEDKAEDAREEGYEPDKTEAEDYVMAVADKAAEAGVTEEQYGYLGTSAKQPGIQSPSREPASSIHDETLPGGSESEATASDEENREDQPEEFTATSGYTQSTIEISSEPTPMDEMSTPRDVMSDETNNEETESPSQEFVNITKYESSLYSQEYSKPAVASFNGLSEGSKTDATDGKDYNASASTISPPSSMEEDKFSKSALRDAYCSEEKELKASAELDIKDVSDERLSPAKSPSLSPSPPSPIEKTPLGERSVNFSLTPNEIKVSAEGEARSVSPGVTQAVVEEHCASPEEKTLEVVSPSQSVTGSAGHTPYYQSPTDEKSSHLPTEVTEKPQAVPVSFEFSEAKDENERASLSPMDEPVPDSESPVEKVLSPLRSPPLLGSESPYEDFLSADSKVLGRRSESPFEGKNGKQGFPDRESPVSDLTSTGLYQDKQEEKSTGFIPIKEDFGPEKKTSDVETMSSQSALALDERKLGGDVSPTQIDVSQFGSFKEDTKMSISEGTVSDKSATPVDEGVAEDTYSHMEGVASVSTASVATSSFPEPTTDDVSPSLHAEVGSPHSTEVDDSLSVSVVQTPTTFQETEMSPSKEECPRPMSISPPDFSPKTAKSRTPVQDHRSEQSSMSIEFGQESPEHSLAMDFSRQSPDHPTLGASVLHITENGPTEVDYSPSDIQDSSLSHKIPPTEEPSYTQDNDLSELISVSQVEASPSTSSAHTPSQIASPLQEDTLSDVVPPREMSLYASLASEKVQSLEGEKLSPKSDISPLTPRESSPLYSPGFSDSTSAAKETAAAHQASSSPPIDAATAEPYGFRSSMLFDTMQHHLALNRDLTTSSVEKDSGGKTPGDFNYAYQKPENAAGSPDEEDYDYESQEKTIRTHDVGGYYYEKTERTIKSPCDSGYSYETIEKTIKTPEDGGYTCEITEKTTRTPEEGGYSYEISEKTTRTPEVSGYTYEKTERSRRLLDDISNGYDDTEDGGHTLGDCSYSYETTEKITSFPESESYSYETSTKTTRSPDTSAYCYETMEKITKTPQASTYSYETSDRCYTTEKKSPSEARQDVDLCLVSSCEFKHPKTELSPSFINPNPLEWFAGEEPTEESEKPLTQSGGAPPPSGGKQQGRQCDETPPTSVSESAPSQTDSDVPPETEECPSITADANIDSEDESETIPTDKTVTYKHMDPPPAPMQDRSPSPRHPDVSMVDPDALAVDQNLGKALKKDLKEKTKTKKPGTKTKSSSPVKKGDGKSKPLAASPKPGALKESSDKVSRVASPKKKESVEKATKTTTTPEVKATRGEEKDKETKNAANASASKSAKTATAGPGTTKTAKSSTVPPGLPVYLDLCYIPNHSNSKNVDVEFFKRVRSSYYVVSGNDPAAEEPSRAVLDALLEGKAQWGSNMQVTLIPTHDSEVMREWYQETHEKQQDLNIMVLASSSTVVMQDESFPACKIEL
UniProt P02088: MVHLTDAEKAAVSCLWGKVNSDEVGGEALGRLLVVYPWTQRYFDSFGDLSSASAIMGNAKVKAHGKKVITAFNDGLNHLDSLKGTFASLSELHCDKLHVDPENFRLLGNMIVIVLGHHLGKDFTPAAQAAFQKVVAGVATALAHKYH
UniProt Q923T9: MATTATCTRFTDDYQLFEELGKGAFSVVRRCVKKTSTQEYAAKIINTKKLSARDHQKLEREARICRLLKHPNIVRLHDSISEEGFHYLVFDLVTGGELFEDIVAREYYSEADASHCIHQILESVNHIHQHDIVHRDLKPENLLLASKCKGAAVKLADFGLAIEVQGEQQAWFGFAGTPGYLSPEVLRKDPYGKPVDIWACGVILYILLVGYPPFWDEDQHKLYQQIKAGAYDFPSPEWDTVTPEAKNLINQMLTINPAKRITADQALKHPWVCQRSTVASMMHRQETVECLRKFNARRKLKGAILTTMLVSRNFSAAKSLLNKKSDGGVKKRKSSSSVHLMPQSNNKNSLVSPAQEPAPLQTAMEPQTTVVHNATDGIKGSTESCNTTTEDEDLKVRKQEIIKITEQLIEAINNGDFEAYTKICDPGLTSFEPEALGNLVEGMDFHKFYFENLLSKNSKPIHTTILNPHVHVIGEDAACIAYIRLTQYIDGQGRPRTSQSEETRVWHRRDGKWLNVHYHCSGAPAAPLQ
UniProt Q6PHZ2: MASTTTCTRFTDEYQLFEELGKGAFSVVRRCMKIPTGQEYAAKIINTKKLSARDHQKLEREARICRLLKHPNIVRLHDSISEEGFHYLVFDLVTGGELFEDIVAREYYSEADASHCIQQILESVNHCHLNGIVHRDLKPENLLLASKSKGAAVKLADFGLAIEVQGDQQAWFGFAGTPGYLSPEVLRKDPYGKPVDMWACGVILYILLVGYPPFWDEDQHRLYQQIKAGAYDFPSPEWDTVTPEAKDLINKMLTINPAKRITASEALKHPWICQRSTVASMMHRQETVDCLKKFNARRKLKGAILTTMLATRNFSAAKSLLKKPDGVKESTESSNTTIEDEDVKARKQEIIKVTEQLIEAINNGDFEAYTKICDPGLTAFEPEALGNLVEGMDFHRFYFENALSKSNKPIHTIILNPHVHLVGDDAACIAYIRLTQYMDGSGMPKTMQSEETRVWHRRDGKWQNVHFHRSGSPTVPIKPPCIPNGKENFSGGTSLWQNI
UniProt P01657: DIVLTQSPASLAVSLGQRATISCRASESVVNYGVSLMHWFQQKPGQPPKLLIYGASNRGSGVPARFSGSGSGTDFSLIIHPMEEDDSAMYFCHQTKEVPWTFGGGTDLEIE
UniProt P07356: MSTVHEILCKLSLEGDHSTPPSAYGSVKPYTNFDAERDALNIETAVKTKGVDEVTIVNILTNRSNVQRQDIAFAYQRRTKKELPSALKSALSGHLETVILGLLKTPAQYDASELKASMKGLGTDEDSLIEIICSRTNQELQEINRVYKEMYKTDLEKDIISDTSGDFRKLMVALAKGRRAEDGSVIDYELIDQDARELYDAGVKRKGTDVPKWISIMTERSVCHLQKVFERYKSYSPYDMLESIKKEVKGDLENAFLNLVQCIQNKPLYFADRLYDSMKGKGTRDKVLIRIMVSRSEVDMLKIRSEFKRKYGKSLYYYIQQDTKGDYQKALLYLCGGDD
UniProt Q9CQZ1: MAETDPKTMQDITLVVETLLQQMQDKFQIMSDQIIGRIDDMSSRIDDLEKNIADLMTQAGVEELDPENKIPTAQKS
UniProt P68373: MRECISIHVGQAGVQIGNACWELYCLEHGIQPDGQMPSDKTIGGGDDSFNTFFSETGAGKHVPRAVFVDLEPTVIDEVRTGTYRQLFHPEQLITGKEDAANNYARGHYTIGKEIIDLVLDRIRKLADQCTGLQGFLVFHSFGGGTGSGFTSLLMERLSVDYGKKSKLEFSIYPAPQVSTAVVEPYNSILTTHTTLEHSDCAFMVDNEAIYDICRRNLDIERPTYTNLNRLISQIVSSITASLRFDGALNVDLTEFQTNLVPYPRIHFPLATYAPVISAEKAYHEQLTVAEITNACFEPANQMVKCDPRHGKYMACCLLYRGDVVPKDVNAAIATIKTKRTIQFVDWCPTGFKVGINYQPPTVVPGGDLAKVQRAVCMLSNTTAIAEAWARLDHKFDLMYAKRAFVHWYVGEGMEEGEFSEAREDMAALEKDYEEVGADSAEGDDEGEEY
UniProt P63101: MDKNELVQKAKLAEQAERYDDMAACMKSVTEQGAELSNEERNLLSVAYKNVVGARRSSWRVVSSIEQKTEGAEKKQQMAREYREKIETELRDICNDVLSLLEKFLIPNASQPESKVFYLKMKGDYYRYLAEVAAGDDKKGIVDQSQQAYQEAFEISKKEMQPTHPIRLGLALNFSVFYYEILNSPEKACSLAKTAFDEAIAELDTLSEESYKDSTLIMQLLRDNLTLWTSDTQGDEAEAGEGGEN

T1: Neuronal cell adhesion molecule 2 (NCAM2) (mouse (endogenous in cerebral cortex)) (UniProt O35136)
T1 sequence: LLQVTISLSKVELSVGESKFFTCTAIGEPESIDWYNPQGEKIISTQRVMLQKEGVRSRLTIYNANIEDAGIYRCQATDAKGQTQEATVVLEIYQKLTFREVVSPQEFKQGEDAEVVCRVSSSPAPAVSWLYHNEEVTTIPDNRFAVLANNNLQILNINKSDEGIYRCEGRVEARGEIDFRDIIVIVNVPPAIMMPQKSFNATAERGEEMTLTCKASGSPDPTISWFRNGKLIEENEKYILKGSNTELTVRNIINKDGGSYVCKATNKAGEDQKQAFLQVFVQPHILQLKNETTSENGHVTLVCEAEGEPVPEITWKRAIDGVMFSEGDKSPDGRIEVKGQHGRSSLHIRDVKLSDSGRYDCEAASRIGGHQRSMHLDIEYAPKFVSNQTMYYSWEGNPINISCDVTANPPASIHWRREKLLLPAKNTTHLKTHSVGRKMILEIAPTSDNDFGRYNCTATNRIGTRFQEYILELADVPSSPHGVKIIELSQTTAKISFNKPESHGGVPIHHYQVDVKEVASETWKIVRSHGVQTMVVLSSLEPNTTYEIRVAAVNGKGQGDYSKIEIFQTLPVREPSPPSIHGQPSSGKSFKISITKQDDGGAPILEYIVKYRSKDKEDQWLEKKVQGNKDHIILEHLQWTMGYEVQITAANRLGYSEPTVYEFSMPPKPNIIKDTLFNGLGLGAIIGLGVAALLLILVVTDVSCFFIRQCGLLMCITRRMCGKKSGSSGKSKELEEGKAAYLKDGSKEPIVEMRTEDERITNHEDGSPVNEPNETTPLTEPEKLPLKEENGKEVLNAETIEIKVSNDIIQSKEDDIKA

B1: Thioredoxin-dependent peroxide reductase (enzyme, UniProt P20108 63-257)
chain: TPAVTQHAPYFKGTAVVNGEFKELSLDDFKGKYLVLFFYPLDFTFVCPTEIVAFSDKANEFHDVNCEVVAVSVDSHFSHLAWINTPRKNGGLGHMNITLLSDITKQISRDYGVLLESAGIALRGLFIIDPNGVVKHLSVNDLPVGRSVEETLRLVKAFQFVETHGEVCPANWTPESPTIKPSPTASKEYFEKVHQ
B2: Elongation factor 1-delta (protein, UniProt P57776 1-281)
chain: MATNFLAHEKIWFDKFKYDDAERRFYEQMNGPVTSGSRQENGASVILRDIARARENIQKSLAGSSGPGASSGPGGDHSELIVRITSLEVENQNLRGVVQDLQQAISKLEARLSSLEKSSPTPRATAPQTQHVSPMRQVEPPTKKGATPAEDDEDKDIDLFGSDEEEEDKEAARLREERLRQYAEKKAKKPTLVAKSSILLDVKPWDDETDMAQLETCVRSIQLDGLVWGASKLVPVGYGIRKLQIQCVVEDDKVGTDLLEEEITKFEEHVQSVDIAAFDKI
B3: Reticulocalbin-2 (protein, UniProt Q8BP92 26-320)
chain: SKAEELHYPQGEHRADYDREALLGVQEDVDEYVKLGHEEQQRRLQSIIKKIDSDSDGFLTENELSQWIQMSFKHYAMQEAKQQFVEYDKNSDGAVTWDEYNIQMYDRVIDFDENTALDDTEEGSFRQLHLKDKKRFEKANQDSGPGLSLEEFIAFEHPEEVDYMTEFVIQEALEEHDKNGDGFVSLEEFLGDYRRDPTANEDPEWILVEKDRFVNDYDKDNDGRLDPQELLSWVVPNNQGIAQEEALHLIDEMDLNSDKKLSEEEILENQDLFLTSEATDYGRQLHDDYFYHDEL
B4: Calumenin (protein, UniProt O35887 20-315)
chain: KPTEKKDRVHHEPQLSDKVHNDAQNFDYDHDAFLGAEEAKSFDQLTPEESKERLGKIVSKIDDDKDGFVTVDELKGWIKFAQKRWIHEDVERQWKGHDLNEDGLVSWEEYKNATYGYVLDDPDPDDGFNYKQMMVRDERRFKMADKDGDLIATKEEFTAFLHPEEYDYMKDIVVQETMEDIDKNADGFIDLEEYIGDMYSHDGNADEPEWVKTEREQFVEFRDKNRDGKMDKEETKDWILPSDYDHAEAEARHLVYESDQNKDGKLTKEEIVDKYDLFVGSQATDFGEALVRHDEF
B5: Myosin light polypeptide 6 (protein, UniProt Q60605 1-151)
chain: MCDFTEDQTAEFKEAFQLFDRTGDGKILYSQCGDVMRALGQNPTNAEVLKVLGNPKSDEMNVKVLDFEHFLPMLQTVAKNKDQGTYEDYVEGLRVFDKEGNGTVMGAEIRHVLVTLGEKMTEEEVEMLVAGHEDSNGCINYEAFVRHILSG
B6: Granulins (protein, UniProt P28798 18-589)
chain: TQCPDGQFCPVACCLDQGGANYSCCNPLLDTWPRITSHHLDGSCQTHGHCPAGYSCLLTVSGTSSCCPFSKGVSCGDGYHCCPQGFHCSADGKSCFQMSDNPLGAVQCPGSQFECPDSATCCIMVDGSWGCCPMPQASCCEDRVHCCPHGASCDLVHTRCVSPTGTHTLLKKFPAQKTNRAVSLPFSVVCPDAKTQCPDDSTCCELPTGKYGCCPMPNAICCSDHLHCCPQDTVCDLIQSKCLSKNYTTDLLTKLPGYPVKEVKCDMEVSCPEGYTCCRLNTGAWGCCPFAKAVCCEDHIHCCPAGFQCHTEKGTCEMGILQVPWMKKVIAPLRLPDPQILKSDTPCDDFTRCPTNNTCCKLNSGDWGCCPIPEAVCCSDNQHCCPQGFTCLAQGYCQKGDTMVAGLEKIPARQTTPLQIGDIGCDQHTSCPVGQTCCPSLKGSWACCQLPHAVCCEDRQHCCPAGYTCNVKARTCEKDVDFIQPPVLLTLGPKVGNVECGEGHFCHDNQTCCKDSAGVWACCPYLKGVCCRDGRHCCPGGFHCSARGTKCLRKKIPRWDMFLRDPVPRPLL
B7: Complement component 1 Q (C1qbp) (protein, UniProt O35658 71-278)
chain: LHTEGDKAFVEFLTDEIKEEKKIQKHKSLPKMSGDWELEVNGTEAKLLRKVAGEKITVTFNINNSIPPTFDGEEEPSQGQKAEEQEPERTSTPNFVVEVTKTDGKKTLVLDCHYPEDEIGHEDEAESDIFSIKEVSFQATGDSEWRDTNYTLNTDSLDWALYDHLMDFLADRGVDNTFADELVELSTALEHQEYITFLEDLKSFVKNQ
B8: Neurofilament light polypeptide (protein, UniProt P08551 1-543)
chain: MSSFGYDPYFSTSYKRRYVETPRVHISSVRSGYSTARSAYSSYSAPVSSSLSVRRSYSSSSGSLMPSLENLDLSQVAAISNDLKSIRTQEKAQLQDLNDRFASFIERVHELEQQNKVLEAELLVLRQKHSEPSRFRALYEQEIRDLRLAAEDATNEKQALQGEREGLEETLRNLQARYEEEVLSREDAEGRLMEARKGADEAALARAELEKRIDSLMDEIAFLKKVHEEEIAELQAQIQYAQISVEMDVSSKPDLSAALKDIRAQYEKLAAKNMQNAEEWFKSRFTVLTESAAKNTDAVRAAKDEVSESRRLLKAKTLEIEACRGMNEALEKQLQELEDKQNADISAMQDTINKLENELRSTKSEMARYLKEYQDLLNVKMALDIEIAAYRKLLEGEETRLSFTSVGSITSGYSQSSQVFGRSAYSGLQSSSYLMSARSFPAYYTSHVQEEQTEVEETIEATKAEEAKDEPPSEGEAEEEEKEKEEGEEEEGAEEEEAAKDESEDTKEEEEGGEGEEEDTKESEEEEKKEESAGEEQVAKKKD

Each molecule was assayed against T1, Neuronal cell adhesion molecule 2 (NCAM2) (mouse (endogenous in cerebral cortex)) (assay: affinity purification with mass spectrometry; NCAM2 precipitated from the membrane fraction (lysis buffer with 1% Triton X-100, 150 mM NaCl) of postnatal mouse cortex with magnetic beads conjugated with anti-NCAM2.1 (EB06991) or anti-NCAM2 (AF778), o/n at 4 °C; urea elution, trypsin, LC-MS/MS, FDR ≤ 0.01%; control: non-conjugated beads).

| binding | Molecule |
| --- | --- |
| binds | EIF3F (from UniProt Q9DCH4 1-361) |
| binds | 60S acidic ribosomal protein P2 (from UniProt P99027 1-115) |
| binds | Barrier-to-autointegration factor (from UniProt O54962 1-89) |
| binds | F-actin-capping protein beta (from UniProt P47757 1-277) |
| binds | Hippocalcin-like protein 1 (from UniProt P62748 1-193) |
| binds | Dynein light chain 1, cytoplasmic (from UniProt P63168 1-89) |
| binds | Calcium/calmodulin-dependent protein kinase type II beta (from UniProt P28652 1-542) (enzyme) |
| binds | Tubulin beta-4A (from UniProt Q9D6F9 1-444) |
| binds | 14-3-3 protein epsilon (from UniProt P62259 1-255) |
| binds | Eukaryotic translation initiation factor 3 H (from UniProt Q91WK2 1-352) |
| binds | Microtubule-associated protein 2 (from UniProt P20357 1-1828) |
| binds | F-actin-capping protein alpha-2 (from UniProt P47754 1-286) |
| binds | Microtubule-associated protein 1B (from UniProt P14873 1-2464) |
| binds | Beta-actin-like protein 2 (from UniProt Q8BFZ3 1-376) |
| binds | Hemoglobin beta-1 (from UniProt P02088 1-147) |
| binds | Calcium/calmodulin-dependent protein kinase type II gamma (from UniProt Q923T9 1-529) (enzyme) |
| binds | Calcium/calmodulin-dependent protein kinase type II alpha (from UniProt P11798 1-478) (enzyme) |

| binding | Molecule |
| --- | --- |
| binds | Calcium/calmodulin-dependent protein kinase type II delta (from UniProt Q6PHZ2 1-499) (enzyme) |
| binds | Ig kappa chain V-III region PC 2413 (from UniProt P01657 1-111) |
| binds | Annexin A2 (from UniProt P07356 1-339) |
| binds | Heat shock factor-binding protein 1 (from UniProt Q9CQZ1 1-76) |
| binds | Tubulin alpha-1C (from UniProt P68373 1-449) |
| binds | FAST kinase domain-containing protein 2 (mouse (endogenous in cerebral cortex)) |
| binds | 14-3-3 protein zeta/delta (from UniProt P63101 1-245) |
| binds | Tubulin beta-6 chain (from UniProt Q922F4 1-447) |
| binds | Protein LSM12 homolog (from UniProt Q9D0R8 1-195) |
| binds | B1 |
| binds | B2 |
| binds | B3 |
| binds | B4 |
| binds | B5 |
| binds | B6 |
| binds | B7 |
| binds | B8 |
